Values from PubChem BioAssay AID652243 (Drosophila RNAi Screening Center, 2013)
In all, the deposit lists about 24,000 reagents; shown is an unselected part of those with a known target gene and a result. In the full data, 246 (1%) were called active. 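Plates not normalised; calls are printed but the firefly/Renilla ratio behind them is not deposited; fold cut for lowering reported inconsistently.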 The raw values are shown without normalisation. No sequences are given here. Not stated in the record: the amount of reagent.

Screen: 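Fly regulators of androgen-dependent reporter output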 (primary screen)
System: Drosophila S2R+ cells
Knock-down reagent: long dsRNA against Drosophila genes
Duration: 72 h (48 h, then 24 h hormone)
Conditions: synthetic androgen R1881 at 10 nM for 24 h
Read-out: 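Per-well raw luminescence of the androgen-driven firefly reporter and of the Renilla control, two replicates each, without normalisation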
Scale: firefly reporter light: higher = more light from androgen-responsive reporter; Renilla control light: higher = more constitutive control signal (cell number, transfection)
Rule for the call: 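Hit when the log firefly-to-Renilla ratio dropped or increased by a fixed fold versus the mean of GFP or LacZ controls across duplicate plates; lowering cut given as 1.5 and as 3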
Meaning of the calls: active = hit: reporter lowered or raised; inactive = no hit

no.	gene knocked down	PubChem SID	firefly reporter light, replicate 1	firefly reporter light, replicate 2	Renilla control light, replicate 1	Renilla control light, replicate 2	call
1	Idgf2 (Imaginal disc growth factor 2)	SID104183142	9.18e5	9.09e5	1.55e6	1.45e6	inactive
2	Idgf2 (Imaginal disc growth factor 2)	SID104205174	6.84e5	5.73e5	7.56e5	8.67e5	inactive
3	Idgf2 (Imaginal disc growth factor 2)	SID104216552	8.29e5	6.72e5	2.03e6	1.66e6	inactive
4	CG33648	SID104215484	1.26e6	1.13e6	1.87e6	1.87e6	inactive
5	cyc (cycle)	SID104191129	2.29e5	1.18e5	2.81e6	2.03e6	inactive
6	CG42663	SID104185950	1.29e5	92970	1.14e6	1.10e6	inactive
7	CG42663	SID104186196	3.00e5	2.21e5	1.99e6	1.55e6	inactive
8	CG42663	SID104202885	9.38e5	6.43e5	1.49e6	1.33e6	inactive
9	Lcp1 (Larval cuticle protein 1)	SID104187247	3.62e5	4.43e5	1.95e6	1.88e6	inactive
10	Spn100A (Serpin 100A)	SID104194388	1.20e5	78121	9.63e5	6.82e5	inactive
11	Miox (Myo-inositol oxygenase)	SID104190539	2.78e5	3.15e5	2.60e6	2.48e6	inactive
12	Miox (Myo-inositol oxygenase)	SID104203129	1.08e6	9.23e5	9.99e5	1.15e6	inactive
13	CG1231	SID104188059	65565	69585	6.79e5	8.70e5	inactive
14	CG1231	SID104205775	4.47e5	3.13e5	5.51e5	3.66e5	inactive
15	CG11893	SID104194221	1.94e5	2.07e5	2.37e6	2.27e6	inactive
16	CG11893	SID104208269	4.26e5	3.70e5	9.06e5	1.23e6	inactive
17	CG3065	SID104203544	7.04e5	7.37e5	8.81e5	8.66e5	inactive
18	Glyat (Glycine N-acyltransferase)	SID104215382	6.73e5	6.46e5	2.15e6	2.18e6	inactive
19	SCCRO (Squamous cell carcinoma-related oncogene)	SID104190636	2.02e5	1.66e5	1.45e6	1.31e6	inactive
20	SCCRO (Squamous cell carcinoma-related oncogene)	SID104208542	1.12e6	7.73e5	1.13e6	9.96e5	inactive
21	CG43331	SID104191463	3.16e5	2.22e5	2.76e6	2.54e6	inactive
22	Bgb	SID104187940	1.17e6	9.06e5	1.45e6	1.65e6	inactive
23	Bgb	SID104204399	2.39e5	3.29e5	7.50e5	7.86e5	inactive
24	CG14245	SID104194532	2.36e5	2.72e5	2.91e6	3.51e6	inactive
25	CG30275	SID104183955	3.22e5	3.61e5	2.48e6	1.97e6	inactive
26	Adss (Adenylosuccinate synthetase)	SID104193954	76028	1.16e5	7.80e5	1.11e6	inactive
27	Adss (Adenylosuccinate synthetase)	SID104208623	8.79e5	8.90e5	1.11e6	1.26e6	inactive
28	GstE6 (Glutathione S transferase E6)	SID104186468	1.55e5	2.42e5	2.35e6	2.88e6	inactive
29	Samuel	SID104201402	6.46e5	6.11e5	1.79e6	2.02e6	inactive
30	Samuel	SID104202471	1.19e6	1.43e6	1.36e6	1.71e6	inactive
31	CG6984	SID104186805	4.13e5	2.84e5	3.46e5	2.68e5	inactive
32	CG31751	SID104182256	1.42e5	1.24e5	1.60e6	9.26e5	inactive
33	CG31751	SID104182257	97679	85654	1.08e6	9.20e5	inactive
34	eIF2Bepsilon (eukaryotic translation initiation factor 2B subunit epsilon)	SID104198561	92422	1.15e5	7.34e5	7.33e5	inactive
35	CG4942	SID104190254	1.11e6	9.78e5	1.61e6	1.86e6	inactive
36	CG11563	SID104194119	3.20e5	2.86e5	2.54e6	2.92e6	inactive
37	ND-B18 (NADH dehydrogenase (ubiquinone) B18 subunit)	SID104199739	3.72e5	4.19e5	3.02e6	3.28e6	inactive
38	ND-B18 (NADH dehydrogenase (ubiquinone) B18 subunit)	SID104206220	1.85e5	1.70e5	5.61e5	5.97e5	inactive
39	RpL7 (Ribosomal protein L7)	SID104183209	1.23e5	1.09e5	6.76e5	7.83e5	inactive
40	RpL7 (Ribosomal protein L7)	SID104207884	2.29e5	3.46e5	5.25e5	5.25e5	inactive
41	hiw (highwire)	SID104200130	1.01e5	1.22e5	1.36e6	1.60e6	active
42	hiw (highwire)	SID104200131	1.15e5	1.03e5	3.39e6	3.01e6	active
43	hiw (highwire)	SID104202831	5.08e5	4.19e5	6.16e5	4.84e5	inactive
44	CG42337	SID104191478	1.30e5	1.03e5	1.43e6	1.48e6	inactive
45	CG42337	SID104202456	7.59e5	7.34e5	1.84e6	1.79e6	inactive
46	CG42337	SID104205582	4.26e5	4.63e5	1.09e6	4.92e5	inactive
47	CG7381	SID104196030	39286	37112	4.12e5	4.97e5	inactive
48	CG7381	SID104207556	4.73e5	3.88e5	1.14e6	1.25e6	inactive
49	koi (klaroid)	SID104184772	1.55e5	1.87e5	9.86e5	1.01e6	inactive
50	koi (klaroid)	SID104184783	2.25e5	3.27e5	1.75e6	2.02e6	inactive
51	TfIIA-S (Transcription-factor-IIA-S)	SID104196675	88541	1.36e5	1.57e6	1.94e6	inactive
52	Muc18B (Mucin 18B)	SID104201336	8.93e5	6.24e5	1.40e6	1.13e6	inactive
53	Muc18B (Mucin 18B)	SID104207433	2.88e5	4.37e5	7.99e5	8.42e5	inactive
54	CG14984	SID104188234	1.38e5	84863	1.57e6	1.20e6	inactive
55	CG14984	SID104206227	3.16e5	2.56e5	5.61e5	7.34e5	inactive
56	CG11842	SID104194192	1.83e5	1.12e5	1.11e6	6.59e5	inactive
57	CG11842	SID104203482	1.22e6	1.17e6	1.21e6	1.19e6	inactive
58	AspRS (Aspartyl-tRNA synthetase)	SID104185706	1.41e6	9.32e5	1.35e6	1.20e6	inactive
